Assay results from patent US20150141617A1, “PRODUCTION AND PURIFICATION OF ACTIVE EUKARYOTIC FORMYLGLYCINEGENERATING ENZYME (FGE) VARIANTS” (Universität Bielefeld, priority 2013, published 2015).
Where “and” joins values, the source holds several entries; their conditions need not be identical. Equal entries are not always repeated. Some compounds share one wording; it may come from a single statement.

Tested on: HT1080 Tet-On cells
Assay: Proteolytic processing of secreted FGE and cleavage motif variants in HT1080 Tet-On cells (western blot)
Type: cell-based, human
Details: for fraction of secreted FGE in the unprocessed form: independent of the expression level; for processing of secreted FGE: 20 ng/mL doxycycline
[1] = transient expression, medium, western blot
[2] = transient expression, western blot

| Molecule | processing of secreted FGE [1] | cleavage efficiency (fl-FGE/Δ72-FGE ratio in the medium) compared to FGE-wt [2] | other results |
| --- | --- | --- | --- |
| FGE: human wild type full length formylglycine generating enzyme with RYSR furin cleavage motif, SEQ ID NO:2 (protein, cloned matured acitve full length FGE with 6x His tag on C-terminus) ADEFSQEAGTGAGAGSLAGSCGCGTPQRPGAHGSSAAAHRYSREANAPGPVPGERQLAHSKMVPIPAGVFTMGTDDPQIKQDGEAPARRVTIDAFYMDAYEVSNTEFEKFVNSTGYLTEAEKFGDSFVFEGMLSEQVKTNIQQAVAAAPWWLPVKGANWRHPEGPDSTILHRPDHPVLHVSWNDAVAYCTWAGKRLPTEAEWEYSCRGGLHNRLFPWGNKLQPKGQHYANIWQGEFPVTNTGEDGFQGTAPVDAFPPNGYGLYNIVGNAWEWTSDWWTVHHSVEETLNPKGPPSGKDRVKKGGSYMCHRSYCYRYRCAARSQNTPDSSASNLGFRCAADRLPTMDSGRGSHHHHHHH |  |  | fraction of secreted FGE in the unprocessed form (medium): 25-35% and 20-30%; fraction of secreted FGE in the unprocessed form (medium, listed as FGE-wt): 20-30% |
| FGE-R69A: human FGE variant with R69A substitution in the furin cleavage motif (protein, FGE fl variant R(Arg) to A (Ala) in position 69, human FGE variant with R69A substitution in the furin cleavage motif) ADEFSQEAGTGAGAGSLAGSCGCGTPQRPGAHGSSAAAHAYSAEANAPGPVPGERQLAHSKMVPIPAGVFTMGTDDPQIKQDGEAPARRVTIDAFYMDAYEVSNTEFEKFVNSTGYLTEAEKFGDSFVFEGMLSEQVKTNIQQAVAAAPWWLPVKGANWRHPEGPDSTILHRPDHPVLHVSWNDAVAYCTWAGKRLPTEAEWEYSCRGGLHNRLFPWGNKLQPKGQHYANIWQGEFPVTNTGEDGFQGTAPVDAFPPNGYGLYNIVGNAWEWTSDWWTVHHSVEETLNPKGPPSGKDRVKKGGSYMCHRSYCYRYRCAARSQNTPDSSASNLGFRCAADRLPTMDSGRGSHHHHHHH | all secreted FGE was in the unprocessed fl-form |  |  |
| RFSR↓E: human FGE variant, Tyr70 at position P3 mutated to Phe (protein, FGE fl variant Y70F, human FGE variant, Tyr70 at position P3 mutated to Phe) ADEFSQEAGTGAGAGSLAGSCGCGTPQRPGAHGSSAAAHRFSREANAPGPVPGERQLAHSKMVPIPAGVFTMGTDDPQIKQDGEAPARRVTIDAFYMDAYEVSNTEFEKFVNSTGYLTEAEKFGDSFVFEGMLSEQVKTNIQQAVAAAPWWLPVKGANWRHPEGPDSTILHRPDHPVLHVSWNDAVAYCTWAGKRLPTEAEWEYSCRGGLHNRLFPWGNKLQPKGQHYANIWQGEFPVTNTGEDGFQGTAPVDAFPPNGYGLYNIVGNAWEWTSDWWTVHHSVEETLNPKGPPSGKDRVKKGGSYMCHRSYCYRYRCAARSQNTPDSSASNLGFRCAADRLPTMDSGRGSHHHHHHH |  | clear increase in cleavage efficiency |  |
| KYSR^72↓ E: human FGE motif variant with Lys at position P4 (R69K) (protein, FGE (FL) variant R 69 K) ADEFSQEAGTGAGAGSLAGSCGCGTPQRPGAHGSSAAAHKYSREANAPGPVPGERQLAHSKMVPIPAGVFTMGTDDPQIKQDGEAPARRVTIDAFYMDAYEVSNTEFEKFVNSTGYLTEAEKFGDSFVFEGMLSEQVKTNIQQAVAAAPWWLPVKGANWRHPEGPDSTILHRPDHPVLHVSWNDAVAYCTWAGKRLPTEAEWEYSCRGGLHNRLFPWGNKLQPKGQHYANIWQGEFPVTNTGEDGFQGTAPVDAFPPNGYGLYNIVGNAWEWTSDWWTVHHSVEETLNPKGPPSGKDRVKKGGSYMCHRSYCYRYRCAARSQNTPDSSASNLGFRCAADRLPTMDSGRGSHHHHHHH |  | doubling |  |
| RKSR↓E: human FGE variant, Tyr70 at position P3 mutated to Lys (protein, Y70K FGE fl variant, human FGE variant, Tyr70 at position P3 mutated to Lys) ADEFSQEAGTGAGAGSLAGSCGCGTPQRPGAHGSSAAAHRKSREANAPGPVPGERQLAHSKMVPIPAGVFTMGTDDPQIKQDGEAPARRVTIDAFYMDAYEVSNTEFEKFVNSTGYLTEAEKFGDSFVFEGMLSEQVKTNIQQAVAAAPWWLPVKGANWRHPEGPDSTILHRPDHPVLHVSWNDAVAYCTWAGKRLPTEAEWEYSCRGGLHNRLFPWGNKLQPKGQHYANIWQGEFPVTNTGEDGFQGTAPVDAFPPNGYGLYNIVGNAWEWTSDWWTVHHSVEETLNPKGPPSGKDRVKKGGSYMCHRSYCYRYRCAARSQNTPDSSASNLGFRCAADRLPTMDSGRGSHHHHHHH |  | clear increase in cleavage efficiency |  |
| RYSR^72↓ P: human FGE variant, substitution of Glu73 with proline (protein, FGE variant E73P, human FGE variant, substitution of Glu73 with proline) ADEFSQEAGTGAGAGSLAGSCGCGTPQRPGAHGSSAAAHRYSRPANAPGPVPGERQLAHSKMVPIPAGVFTMGTDDPQIKQDGEAPARRVTIDAFYMDAYEVSNTEFEKFVNSTGYLTEAEKFGDSFVFEGMLSEQVKTNIQQAVAAAPWWLPVKGANWRHPEGPDSTILHRPDHPVLHVSWNDAVAYCTWAGKRLPTEAEWEYSCRGGLHNRLFPWGNKLQPKGQHYANIWQGEFPVTNTGEDGFQGTAPVDAFPPNGYGLYNIVGNAWEWTSDWWTVHHSVEETLNPKGPPSGKDRVKKGGSYMCHRSYCYRYRCAARSQNTPDSSASNLGFRCAADRLPTMDSGRGSHHHHHHH |  | reduction in processing |  |
| fl-FGE-R69A/R72A: human full length FGE variant, Arginine-69 and Arginine-72 converted to Alanine, non-cleavable furin motif, SEQ ID NO:4 (protein, double fl FGE variant R69A / R72A) ADEFSQEAGTGAGAGSLAGSCGCGTPQRPGAHGSSAAAHAYSAEANAPGPVPGERQLAHSKMVPIPAGVFTMGTDDPQIKQDGEAPARRVTIDAFYMDAYEVSNTEFEKFVNSTGYLTEAEKFGDSFVFEGMLSEQVKTNIQQAVAAAPWWLPVKGANWRHPEGPDSTILHRPDHPVLHVSWNDAVAYCTWAGKRLPTEAEWEYSCRGGLHNRLFPWGNKLQPKGQHYANIWQGEFPVTNTGEDGFQGTAPVDAFPPNGYGLYNIVGNAWEWTSDWWTVHHSVEETLNPKGPPSGKDRVKKGGSYMCHRSYCYRYRCAARSQNTPDSSASNLGFRCAADRLPTMDSGRGSHHHHHHH | all secreted FGE was in the unprocessed fl-form |  |  |
| FGE-R72A: human FGE variant with R72A substitution in the furin cleavage motif (protein, FGE R72A variant, human FGE variant with R72A substitution in the furin cleavage motif) ADEFSQEAGTGAGAGSLAGSCGCGTPQRPGAHGSSAAAHRYSAEANAPGPVPGERQLAHSKMVPIPAGVFTMGTDDPQIKQDGEAPARRVTIDAFYMDAYEVSNTEFEKFVNSTGYLTEAEKFGDSFVFEGMLSEQVKTNIQQAVAAAPWWLPVKGANWRHPEGPDSTILHRPDHPVLHVSWNDAVAYCTWAGKRLPTEAEWEYSCRGGLHNRLFPWGNKLQPKGQHYANIWQGEFPVTNTGEDGFQGTAPVDAFPPNGYGLYNIVGNAWEWTSDWWTVHHSVEETLNPKGPPSGKDRVKKGGSYMCHRSYCYRYRCAARSQNTPDSSASNLGFRCAADRLPTMDSGRGSHHHHHHH | all secreted FGE was in the unprocessed fl-form |  |  |
| FGE-Y70A: human FGE variant with Y70A substitution in the furin cleavage motif (protein, Y70A FGE variant, human FGE variant with Y70A substitution in the furin cleavage motif) ADEFSQEAGTGAGAGSLAGSCGCGTPQRPGAHGSSAAAHRASREANAPGPVPGERQLAHSKMVPIPAGVFTMGTDDPQIKQDGEAPARRVTIDAFYMDAYEVSNTEFEKFVNSTGYLTEAEKFGDSFVFEGMLSEQVKTNIQQAVAAAPWWLPVKGANWRHPEGPDSTILHRPDHPVLHVSWNDAVAYCTWAGKRLPTEAEWEYSCRGGLHNRLFPWGNKLQPKGQHYANIWQGEFPVTNTGEDGFQGTAPVDAFPPNGYGLYNIVGNAWEWTSDWWTVHHSVEETLNPKGPPSGKDRVKKGGSYMCHRSYCYRYRCAARSQNTPDSSASNLGFRCAADRLPTMDSGRGSHHHHHHH |  |  | FGE secreted in the fl-form compared to wildtype (wt) FGE [1]: 1.5 fold |
| RYSK^72↓ E: human FGE motif variant with Lys at position P1 (R72K) (protein, FGE fl variant R72K) ADEFSQEAGTGAGAGSLAGSCGCGTPQRPGAHGSSAAAHRYSKEANAPGPVPGERQLAHSKMVPIPAGVFTMGTDDPQIKQDGEAPARRVTIDAFYMDAYEVSNTEFEKFVNSTGYLTEAEKFGDSFVFEGMLSEQVKTNIQQAVAAAPWWLPVKGANWRHPEGPDSTILHRPDHPVLHVSWNDAVAYCTWAGKRLPTEAEWEYSCRGGLHNRLFPWGNKLQPKGQHYANIWQGEFPVTNTGEDGFQGTAPVDAFPPNGYGLYNIVGNAWEWTSDWWTVHHSVEETLNPKGPPSGKDRVKKGGSYMCHRSYCYRYRCAARSQNTPDSSASNLGFRCAADRLPTMDSGRGSHHHHHHH |  | doubling |  |
| FGE-S71A: human FGE variant with S71A substitution in the furin cleavage motif (protein, FGE fl variant S71A, human FGE variant with S71A substitution in the furin cleavage motif) ADEFSQEAGTGAGAGSLAGSCGCGTPQRPGAHGSSAAAHRYAREANAPGPVPGERQLAHSKMVPIPAGVFTMGTDDPQIKQDGEAPARRVTIDAFYMDAYEVSNTEFEKFVNSTGYLTEAEKFGDSFVFEGMLSEQVKTNIQQAVAAAPWWLPVKGANWRHPEGPDSTILHRPDHPVLHVSWNDAVAYCTWAGKRLPTEAEWEYSCRGGLHNRLFPWGNKLQPKGQHYANIWQGEFPVTNTGEDGFQGTAPVDAFPPNGYGLYNIVGNAWEWTSDWWTVHHSVEETLNPKGPPSGKDRVKKGGSYMCHRSYCYRYRCAARSQNTPDSSASNLGFRCAADRLPTMDSGRGSHHHHHHH | nearly complete processing |  |  |
